Reference: doi:10.1101/2024.10.01.616059 (bioRxiv, 2024)

Assays:
PRPS2-GFP [1] = target: T1, PRPS2-GFP (UniProt Q9CS42); assay: affinity purification with mass spectrometry; GFP immunoprecipitation (GFP-Trap magnetic particles) from lysates of HEK293T cells stably expressing GFP-tagged paralogs; lysis 50 mM Tris pH 7.5, 200 mM NaCl, 1% digitonin; washes with 1.5 M NaCl, 0.5% Triton X-100; eluates by Coomassie gel and nanoLC-MS/MS; NES-GFP cells as control
T1 sequence: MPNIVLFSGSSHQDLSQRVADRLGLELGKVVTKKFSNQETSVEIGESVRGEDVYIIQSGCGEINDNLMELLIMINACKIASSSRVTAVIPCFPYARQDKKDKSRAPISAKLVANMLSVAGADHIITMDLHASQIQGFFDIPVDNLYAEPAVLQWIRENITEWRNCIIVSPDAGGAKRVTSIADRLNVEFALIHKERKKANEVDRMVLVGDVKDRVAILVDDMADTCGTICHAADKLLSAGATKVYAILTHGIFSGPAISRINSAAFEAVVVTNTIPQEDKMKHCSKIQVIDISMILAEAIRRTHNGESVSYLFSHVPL

[2] = target: T2, PRPSAP1-GFP (short PRPSAP1 isoform) (UniProt Q14558); assay: as above
T2 sequence: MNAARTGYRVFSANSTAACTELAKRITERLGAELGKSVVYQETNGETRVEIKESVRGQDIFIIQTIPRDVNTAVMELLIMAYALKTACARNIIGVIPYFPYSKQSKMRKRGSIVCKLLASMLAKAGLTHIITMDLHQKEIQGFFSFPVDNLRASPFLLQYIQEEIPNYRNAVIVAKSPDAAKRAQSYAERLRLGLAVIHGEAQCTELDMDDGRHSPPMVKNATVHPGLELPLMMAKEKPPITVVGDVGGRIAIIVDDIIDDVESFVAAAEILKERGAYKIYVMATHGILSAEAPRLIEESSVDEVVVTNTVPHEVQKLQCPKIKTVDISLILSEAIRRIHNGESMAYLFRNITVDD

PRPS2-GFP [3] = target: T1, PRPS2-GFP; assay: affinity purification with mass spectrometry; GFP immunoprecipitation (GFP-Trap magnetic particles) from lysates of NIH3T3 cells stably expressing GFP-tagged paralogs; lysis 50 mM Tris pH 7.5, 200 mM NaCl, 1% digitonin; washes with 1.5 M NaCl, 0.5% Triton X-100; eluates by Coomassie gel and nanoLC-MS/MS; NES-GFP cells as control
[4] = target: T2, PRPSAP1-GFP (short PRPSAP1 isoform); assay: as above
PRPS1-GFP [5] = target: T3, PRPS1-GFP (UniProt Q9D7G0); assay: affinity purification with mass spectrometry; GFP immunoprecipitation (GFP-Trap magnetic particles) from lysates of HEK293T cells stably expressing GFP-tagged paralogs; lysis 50 mM Tris pH 7.5, 200 mM NaCl, 1% digitonin; washes with 1.5 M NaCl, 0.5% Triton X-100; eluates by Coomassie gel and nanoLC-MS/MS; NES-GFP cells as control
T3 sequence: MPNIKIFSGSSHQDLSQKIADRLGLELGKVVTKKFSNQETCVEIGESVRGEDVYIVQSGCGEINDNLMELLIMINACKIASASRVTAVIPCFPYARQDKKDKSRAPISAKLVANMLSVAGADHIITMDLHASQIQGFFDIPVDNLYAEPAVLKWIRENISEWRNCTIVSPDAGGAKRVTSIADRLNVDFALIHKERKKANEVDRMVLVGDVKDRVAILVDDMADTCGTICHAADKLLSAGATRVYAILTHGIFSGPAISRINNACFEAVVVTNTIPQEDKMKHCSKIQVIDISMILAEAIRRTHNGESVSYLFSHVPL

[6] = target: T4, PRPSAP2-GFP (long PRPSAP2 isoform) (UniProt O60256); assay: affinity purification with mass spectrometry; GFP immunoprecipitation (GFP-Trap magnetic particles) from lysates of NIH3T3 cells stably expressing GFP-tagged paralogs; lysis 50 mM Tris pH 7.5, 200 mM NaCl, 1% digitonin; washes with 1.5 M NaCl, 0.5% Triton X-100; eluates by Coomassie gel and nanoLC-MS/MS; NES-GFP cells as control
T4 sequence: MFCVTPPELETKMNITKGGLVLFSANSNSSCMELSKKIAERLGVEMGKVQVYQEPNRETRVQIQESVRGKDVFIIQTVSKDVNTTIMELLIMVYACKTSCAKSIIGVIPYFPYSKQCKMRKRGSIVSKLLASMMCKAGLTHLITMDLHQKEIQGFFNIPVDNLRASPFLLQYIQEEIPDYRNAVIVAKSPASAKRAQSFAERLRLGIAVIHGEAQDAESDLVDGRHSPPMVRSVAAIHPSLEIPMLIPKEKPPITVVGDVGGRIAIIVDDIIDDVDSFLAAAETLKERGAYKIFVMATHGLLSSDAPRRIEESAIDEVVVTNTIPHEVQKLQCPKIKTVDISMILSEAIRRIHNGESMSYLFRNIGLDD

[7] = target: T4, PRPSAP2-GFP (long PRPSAP2 isoform); assay: affinity purification with mass spectrometry; GFP immunoprecipitation (GFP-Trap magnetic particles) from lysates of HEK293T cells stably expressing GFP-tagged paralogs; lysis 50 mM Tris pH 7.5, 200 mM NaCl, 1% digitonin; washes with 1.5 M NaCl, 0.5% Triton X-100; eluates by Coomassie gel and nanoLC-MS/MS; NES-GFP cells as control
PRPS1-GFP [8] = target: T3, PRPS1-GFP; assay: affinity purification with mass spectrometry; GFP immunoprecipitation (GFP-Trap magnetic particles) from lysates of NIH3T3 cells stably expressing GFP-tagged paralogs; lysis 50 mM Tris pH 7.5, 200 mM NaCl, 1% digitonin; washes with 1.5 M NaCl, 0.5% Triton X-100; eluates by Coomassie gel and nanoLC-MS/MS; NES-GFP cells as control

B2: PRPS-associated protein 2 (PRPSAP2), mouse, endogenous (protein, UniProt Q8R574 1-369)
chain: MFCVAPPELETKMNITKGGLVLFSANSNSSCMELSKKIAERLGVEMGKVQVYQEPNRETRVQIQESVRGKDVFIIQTISKDVNTTIMELLIMVYACKTSCAKSIIGVIPYFPYSKQCKMRKRGSIVSKLLASMMCKAGLTHLITMDLHQKEIQGFFNIPVDNLRASPFLLQYIQEEIPDYRNAVIVAKSPASAKRAQSFAERLRLGIAVIHGEAQDAESDLVDGRHSPPMVRSVAAIHPSLEIPMLIPKEKPPITVVGDVGGRIAIIVDDIIDDVDSFLAAAETLKERGAYKIFVMATHGLLSSDAPRLIEESAIDEVVVTNTIPHEIQKLQCPKIKTVDISMILSEAIRRIHNGESMSYLFRNIGLDD
binding (PRPS2-GFP [3]): binds
binding [4]: binds

B3: phosphoribosyl pyrophosphate synthetase 1 (PRPS1), human, endogenous (enzyme, UniProt P60891 1-318)
chain: MPNIKIFSGSSHQDLSQKIADRLGLELGKVVTKKFSNQETCVEIGESVRGEDVYIVQSGCGEINDNLMELLIMINACKIASASRVTAVIPCFPYARQDKKDKSRAPISAKLVANMLSVAGADHIITMDLHASQIQGFFDIPVDNLYAEPAVLKWIRENISEWRNCTIVSPDAGGAKRVTSIADRLNVDFALIHKERKKANEVDRMVLVGDVKDRVAILVDDMADTCGTICHAADKLLSAGATRVYAILTHGIFSGPAISRINNACFEAVVVTNTIPQEDKMKHCSKIQVIDISMILAEAIRRTHNGESVSYLFSHVPL
binding (PRPS2-GFP [1]): binds

B4: phosphoribosyl pyrophosphate synthetase 1 (PRPS1), mouse, endogenous (enzyme, UniProt Q9D7G0 1-318)
chain: MPNIKIFSGSSHQDLSQKIADRLGLELGKVVTKKFSNQETCVEIGESVRGEDVYIVQSGCGEINDNLMELLIMINACKIASASRVTAVIPCFPYARQDKKDKSRAPISAKLVANMLSVAGADHIITMDLHASQIQGFFDIPVDNLYAEPAVLKWIRENISEWRNCTIVSPDAGGAKRVTSIADRLNVDFALIHKERKKANEVDRMVLVGDVKDRVAILVDDMADTCGTICHAADKLLSAGATRVYAILTHGIFSGPAISRINNACFEAVVVTNTIPQEDKMKHCSKIQVIDISMILAEAIRRTHNGESVSYLFSHVPL
binding (PRPS2-GFP [3]): binds

B7: PRPS-associated protein 1 (PRPSAP1), human, endogenous (protein, UniProt Q14558 1-356)
chain: MNAARTGYRVFSANSTAACTELAKRITERLGAELGKSVVYQETNGETRVEIKESVRGQDIFIIQTIPRDVNTAVMELLIMAYALKTACARNIIGVIPYFPYSKQSKMRKRGSIVCKLLASMLAKAGLTHIITMDLHQKEIQGFFSFPVDNLRASPFLLQYIQEEIPNYRNAVIVAKSPDAAKRAQSYAERLRLGLAVIHGEAQCTELDMDDGRHSPPMVKNATVHPGLELPLMMAKEKPPITVVGDVGGRIAIIVDDIIDDVESFVAAAEILKERGAYKIYVMATHGILSAEAPRLIEESSVDEVVVTNTVPHEVQKLQCPKIKTVDISLILSEAIRRIHNGESMAYLFRNITVDD
binding (PRPS2-GFP [1]): binds
binding [7]: binds

B8: phosphoribosyl pyrophosphate synthetase 2 (PRPS2), mouse, endogenous (enzyme, UniProt Q9CS42 1-318, looked up)
chain: MPNIVLFSGSSHQDLSQRVADRLGLELGKVVTKKFSNQETSVEIGESVRGEDVYIIQSGCGEINDNLMELLIMINACKIASSSRVTAVIPCFPYARQDKKDKSRAPISAKLVANMLSVAGADHIITMDLHASQIQGFFDIPVDNLYAEPAVLQWIRENITEWRNCIIVSPDAGGAKRVTSIADRLNVEFALIHKERKKANEVDRMVLVGDVKDRVAILVDDMADTCGTICHAADKLLSAGATKVYAILTHGIFSGPAISRINSAAFEAVVVTNTIPQEDKMKHCSKIQVIDISMILAEAIRRTHNGESVSYLFSHVPL
notes: PRPS2, mouse, endogenous protein of NIH3T3 cells and mouse tissue; also called P2; source: endogenous, NIH3T3 (parental and CRISPR knockout clones), native lysate; endogenous, C57BL/6 mouse kidney, native lysate
binding (PRPS1-GFP [8]): binds
binding [4]: binds
binding [6]: binds

B9: phosphoribosyl pyrophosphate synthetase 2 (PRPS2), human, endogenous (enzyme, UniProt P11908 1-318)
chain: MPNIVLFSGSSHQDLSQRVADRLGLELGKVVTKKFSNQETSVEIGESVRGEDVYIIQSGCGEINDNLMELLIMINACKIASSSRVTAVIPCFPYARQDKKDKSRAPISAKLVANMLSVAGADHIITMDLHASQIQGFFDIPVDNLYAEPAVLQWIRENIAEWKNCIIVSPDAGGAKRVTSIADRLNVEFALIHKERKKANEVDRMVLVGDVKDRVAILVDDMADTCGTICHAADKLLSAGATKVYAILTHGIFSGPAISRINNAAFEAVVVTNTIPQEDKMKHCTKIQVIDISMILAEAIRRTHNGESVSYLFSHVPL
binding (PRPS1-GFP [5]): binds
binding [2]: binds
binding [7]: binds

The remaining lines, values ahead:

binding (PRPS2-GFP [1]): binds
binding [2]: binds
B1: PRPS-associated protein 2 (PRPSAP2), human, endogenous (protein, UniProt O60256 1-369)
chain: MFCVTPPELETKMNITKGGLVLFSANSNSSCMELSKKIAERLGVEMGKVQVYQEPNRETRVQIQESVRGKDVFIIQTVSKDVNTTIMELLIMVYACKTSCAKSIIGVIPYFPYSKQCKMRKRGSIVSKLLASMMCKAGLTHLITMDLHQKEIQGFFNIPVDNLRASPFLLQYIQEEIPDYRNAVIVAKSPASAKRAQSFAERLRLGIAVIHGEAQDAESDLVDGRHSPPMVRSVAAIHPSLEIPMLIPKEKPPITVVGDVGGRIAIIVDDIIDDVDSFLAAAETLKERGAYKIFVMATHGLLSSDAPRRIEESAIDEVVVTNTIPHEVQKLQCPKIKTVDISMILSEAIRRIHNGESMSYLFRNIGLDD

binding (PRPS1-GFP [5]): binds
B5: PRPS1L1, testis-specific PRPS isoform, human, endogenous (enzyme, UniProt P21108 1-318)
chain: MPNIKIFSGSSHQDLSQKIADRLGLELGKVVTKKFSNQETCVEIDESVRGEDVYIVQSGCGEINDSLMELLIMINACKIASASRVTAVIPCFPYARQDKKDKSRSPISAKLVANMLSIAGADHIITMDLHASQIQGFFDIPVDNLYAEPTVLKWIRENIPEWKNCIIVSPDAGGAKRVTSIADQLNVDFALIHKERKKANEVDCIVLVGDVNDRVAILVDDMADTCVTICLAADKLLSAGATRVYAILTHGIFSGPAISRINTACFEAVVVTNTIPQDEKMKHCSKIRVIDISMILAEAIRRTHNGESVSYLFSHVPL

binding (PRPS2-GFP [3]): binds
binding [6]: binds
B6: PRPS-associated protein 1 (PRPSAP1), mouse, endogenous (protein, UniProt Q9D0M1 1-356)
chain: MNAARTGYRVFSANSTAACTELAKRITERLGAELGKSVVYQETNGETRVEIKESVRGQDIFIIQTIPRDVNTAVMELLIMAYALKTACARNIIGVIPYFPYSKQSKMRKRGSIVCKLLASMLAKAGLTHIITMDLHQKEIQGFFSFPVDNLRASPFLLQYIQEEIPNYRNAVIVAKSPDAAKRAQSYAERLRLGLAVIHGEAQCTELDMDDGRHSPPMVKNATVHPGLELPLMMAKEKPPITVVGDVGGRIAIIVDDIIDDVESFVAAAEILKERGAYKIYVMATHGILSAEAPRLIEESPIDEVVVTNTVPHELQKLQCPKIKTVDISLILSEAIRRIHNGESMAYLFRNITVDD

Results are given in words; binding and its absence hold for the method and conditions named. Binding seen in cells or lysates may run through a third protein. Here binding means that the protein was enriched with, or labelled near, the bait; the list need not be complete. Tags and fused reporters may be left off the sequences shown. One block for each binder: values may come before it.
